Some of the results follow.

Chains of the proteins cited; added tags and fusions are not shown. Lines headed by an entry give the natural chain unless they say otherwise; changes in a name come on top.
UniProt Q9P2K8: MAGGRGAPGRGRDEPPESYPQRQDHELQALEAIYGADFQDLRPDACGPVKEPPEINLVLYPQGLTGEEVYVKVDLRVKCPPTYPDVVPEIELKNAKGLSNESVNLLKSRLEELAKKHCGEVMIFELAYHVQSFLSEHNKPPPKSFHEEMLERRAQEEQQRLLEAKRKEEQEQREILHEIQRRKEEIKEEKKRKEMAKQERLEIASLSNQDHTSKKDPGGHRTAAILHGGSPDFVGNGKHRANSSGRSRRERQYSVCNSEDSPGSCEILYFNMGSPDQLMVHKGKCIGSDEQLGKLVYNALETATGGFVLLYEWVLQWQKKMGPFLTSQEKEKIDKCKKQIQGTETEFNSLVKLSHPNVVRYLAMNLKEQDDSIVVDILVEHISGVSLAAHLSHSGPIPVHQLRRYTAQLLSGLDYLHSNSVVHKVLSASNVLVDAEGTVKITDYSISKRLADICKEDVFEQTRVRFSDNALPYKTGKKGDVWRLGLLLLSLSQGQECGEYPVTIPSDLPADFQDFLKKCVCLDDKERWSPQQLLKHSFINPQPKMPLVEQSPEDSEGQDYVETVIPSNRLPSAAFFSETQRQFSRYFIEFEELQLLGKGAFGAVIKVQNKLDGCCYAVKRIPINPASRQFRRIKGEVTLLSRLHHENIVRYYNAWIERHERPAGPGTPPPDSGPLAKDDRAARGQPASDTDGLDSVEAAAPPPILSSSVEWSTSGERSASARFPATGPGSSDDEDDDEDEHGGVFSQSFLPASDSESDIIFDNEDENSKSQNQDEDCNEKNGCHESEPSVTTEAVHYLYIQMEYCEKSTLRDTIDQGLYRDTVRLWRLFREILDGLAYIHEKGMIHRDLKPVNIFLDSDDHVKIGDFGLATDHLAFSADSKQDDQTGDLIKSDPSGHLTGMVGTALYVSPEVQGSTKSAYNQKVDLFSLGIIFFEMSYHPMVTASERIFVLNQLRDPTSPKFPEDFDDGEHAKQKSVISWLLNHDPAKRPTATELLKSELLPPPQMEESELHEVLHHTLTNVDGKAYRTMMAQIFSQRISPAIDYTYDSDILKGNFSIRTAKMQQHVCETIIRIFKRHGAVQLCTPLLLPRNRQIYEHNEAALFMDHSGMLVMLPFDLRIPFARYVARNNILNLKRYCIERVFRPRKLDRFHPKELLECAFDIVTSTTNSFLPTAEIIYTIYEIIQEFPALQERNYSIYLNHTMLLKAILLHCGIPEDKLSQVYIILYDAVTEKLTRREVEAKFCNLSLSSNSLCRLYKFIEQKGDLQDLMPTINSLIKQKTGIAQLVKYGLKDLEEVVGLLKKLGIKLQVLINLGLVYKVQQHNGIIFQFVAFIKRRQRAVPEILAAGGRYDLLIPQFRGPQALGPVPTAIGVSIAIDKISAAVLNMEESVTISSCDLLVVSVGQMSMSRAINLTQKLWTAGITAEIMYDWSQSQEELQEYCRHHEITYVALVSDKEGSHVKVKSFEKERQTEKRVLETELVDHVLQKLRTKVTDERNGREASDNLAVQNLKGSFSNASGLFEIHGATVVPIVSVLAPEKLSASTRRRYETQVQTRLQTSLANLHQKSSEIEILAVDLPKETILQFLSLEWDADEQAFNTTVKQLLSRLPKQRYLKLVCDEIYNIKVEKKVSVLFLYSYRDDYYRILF
UniProt Q9P0I2: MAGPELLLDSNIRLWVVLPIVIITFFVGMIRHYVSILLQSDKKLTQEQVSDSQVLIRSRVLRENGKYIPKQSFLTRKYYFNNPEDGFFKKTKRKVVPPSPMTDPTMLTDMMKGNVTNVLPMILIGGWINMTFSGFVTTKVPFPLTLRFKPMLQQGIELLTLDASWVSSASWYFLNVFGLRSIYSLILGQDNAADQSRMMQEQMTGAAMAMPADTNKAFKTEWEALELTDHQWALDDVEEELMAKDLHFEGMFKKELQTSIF
UniProt P54852: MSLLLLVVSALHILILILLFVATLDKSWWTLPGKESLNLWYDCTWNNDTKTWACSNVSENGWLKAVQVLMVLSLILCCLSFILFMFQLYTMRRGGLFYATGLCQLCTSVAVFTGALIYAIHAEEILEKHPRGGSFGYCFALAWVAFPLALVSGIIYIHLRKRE
UniProt Q5J8M3, whole entry, looked up: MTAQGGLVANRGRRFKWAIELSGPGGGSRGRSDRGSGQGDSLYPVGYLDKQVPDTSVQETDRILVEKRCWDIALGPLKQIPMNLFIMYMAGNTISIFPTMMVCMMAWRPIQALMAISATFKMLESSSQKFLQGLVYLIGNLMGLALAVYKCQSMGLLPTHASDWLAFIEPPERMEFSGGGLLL
UniProt Q9Y2J2, whole entry, looked up: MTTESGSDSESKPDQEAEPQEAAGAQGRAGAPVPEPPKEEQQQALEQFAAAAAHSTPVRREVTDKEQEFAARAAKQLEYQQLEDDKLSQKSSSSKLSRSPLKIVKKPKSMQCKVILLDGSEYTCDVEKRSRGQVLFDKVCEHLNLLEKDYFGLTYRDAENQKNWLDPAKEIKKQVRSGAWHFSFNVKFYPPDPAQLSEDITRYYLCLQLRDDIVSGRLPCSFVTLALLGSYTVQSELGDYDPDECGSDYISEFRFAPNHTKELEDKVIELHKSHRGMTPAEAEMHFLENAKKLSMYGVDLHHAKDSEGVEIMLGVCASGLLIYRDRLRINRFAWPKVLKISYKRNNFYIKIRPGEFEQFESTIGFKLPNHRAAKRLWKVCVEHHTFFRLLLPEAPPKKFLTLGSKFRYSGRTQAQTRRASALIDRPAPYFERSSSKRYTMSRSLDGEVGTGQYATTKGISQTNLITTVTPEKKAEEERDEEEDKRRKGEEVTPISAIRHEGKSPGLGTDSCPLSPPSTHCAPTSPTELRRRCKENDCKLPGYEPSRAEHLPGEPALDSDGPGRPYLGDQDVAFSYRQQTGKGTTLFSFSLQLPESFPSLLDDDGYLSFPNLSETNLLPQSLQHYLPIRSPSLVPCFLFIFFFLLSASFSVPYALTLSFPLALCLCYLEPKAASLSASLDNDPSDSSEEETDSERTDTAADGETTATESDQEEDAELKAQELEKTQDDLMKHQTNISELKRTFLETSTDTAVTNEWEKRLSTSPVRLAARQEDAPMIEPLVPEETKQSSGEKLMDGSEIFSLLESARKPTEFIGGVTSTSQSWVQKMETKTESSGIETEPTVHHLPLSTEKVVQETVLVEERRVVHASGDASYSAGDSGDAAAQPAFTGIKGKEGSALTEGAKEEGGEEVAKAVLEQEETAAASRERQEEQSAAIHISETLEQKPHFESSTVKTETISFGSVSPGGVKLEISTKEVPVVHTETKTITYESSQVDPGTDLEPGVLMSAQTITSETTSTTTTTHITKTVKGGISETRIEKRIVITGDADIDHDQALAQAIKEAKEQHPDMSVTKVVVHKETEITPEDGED
UniProt Q13542: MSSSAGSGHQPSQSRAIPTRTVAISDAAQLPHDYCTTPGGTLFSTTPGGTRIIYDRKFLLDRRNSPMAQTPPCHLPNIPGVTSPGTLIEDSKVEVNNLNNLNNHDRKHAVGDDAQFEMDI
UniProt Q2NKX8: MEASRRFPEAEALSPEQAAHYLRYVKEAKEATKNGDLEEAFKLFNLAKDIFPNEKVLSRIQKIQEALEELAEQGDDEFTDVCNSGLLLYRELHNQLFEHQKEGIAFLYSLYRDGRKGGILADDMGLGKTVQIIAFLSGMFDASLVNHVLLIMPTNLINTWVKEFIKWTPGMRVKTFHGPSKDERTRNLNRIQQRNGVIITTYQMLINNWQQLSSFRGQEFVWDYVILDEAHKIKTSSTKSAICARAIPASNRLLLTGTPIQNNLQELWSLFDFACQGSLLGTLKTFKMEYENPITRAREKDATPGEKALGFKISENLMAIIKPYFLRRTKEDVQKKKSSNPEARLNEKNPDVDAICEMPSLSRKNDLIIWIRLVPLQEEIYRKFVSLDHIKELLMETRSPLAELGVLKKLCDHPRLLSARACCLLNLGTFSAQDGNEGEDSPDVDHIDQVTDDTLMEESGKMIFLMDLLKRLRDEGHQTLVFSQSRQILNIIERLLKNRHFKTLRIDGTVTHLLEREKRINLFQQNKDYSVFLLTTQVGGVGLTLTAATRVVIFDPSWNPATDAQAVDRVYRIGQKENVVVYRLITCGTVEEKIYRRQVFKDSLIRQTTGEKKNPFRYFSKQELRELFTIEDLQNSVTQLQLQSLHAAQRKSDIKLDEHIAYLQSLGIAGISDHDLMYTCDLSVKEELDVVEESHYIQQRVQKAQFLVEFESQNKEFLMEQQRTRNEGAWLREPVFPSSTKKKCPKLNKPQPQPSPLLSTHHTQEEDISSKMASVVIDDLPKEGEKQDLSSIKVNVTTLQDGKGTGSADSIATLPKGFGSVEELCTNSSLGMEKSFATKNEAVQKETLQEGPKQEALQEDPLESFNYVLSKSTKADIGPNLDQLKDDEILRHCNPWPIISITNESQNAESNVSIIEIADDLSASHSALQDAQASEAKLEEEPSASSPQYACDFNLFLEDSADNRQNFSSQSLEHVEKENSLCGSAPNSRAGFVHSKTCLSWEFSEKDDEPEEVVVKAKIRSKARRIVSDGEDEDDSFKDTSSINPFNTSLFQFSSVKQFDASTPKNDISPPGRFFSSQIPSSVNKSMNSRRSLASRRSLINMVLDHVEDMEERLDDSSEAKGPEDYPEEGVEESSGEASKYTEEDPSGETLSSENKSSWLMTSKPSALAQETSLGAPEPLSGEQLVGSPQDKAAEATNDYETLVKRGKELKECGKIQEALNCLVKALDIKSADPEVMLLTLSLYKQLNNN
UniProt P06730, whole entry, looked up: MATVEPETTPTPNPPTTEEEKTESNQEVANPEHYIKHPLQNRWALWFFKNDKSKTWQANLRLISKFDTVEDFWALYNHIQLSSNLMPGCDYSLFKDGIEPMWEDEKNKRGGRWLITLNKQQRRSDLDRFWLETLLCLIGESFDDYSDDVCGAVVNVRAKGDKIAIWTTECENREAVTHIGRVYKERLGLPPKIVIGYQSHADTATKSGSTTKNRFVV
UniProt Q9BV81: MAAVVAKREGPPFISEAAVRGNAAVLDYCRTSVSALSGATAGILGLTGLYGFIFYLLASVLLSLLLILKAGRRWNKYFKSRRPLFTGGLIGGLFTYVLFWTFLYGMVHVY
UniProt P38919, whole entry, looked up: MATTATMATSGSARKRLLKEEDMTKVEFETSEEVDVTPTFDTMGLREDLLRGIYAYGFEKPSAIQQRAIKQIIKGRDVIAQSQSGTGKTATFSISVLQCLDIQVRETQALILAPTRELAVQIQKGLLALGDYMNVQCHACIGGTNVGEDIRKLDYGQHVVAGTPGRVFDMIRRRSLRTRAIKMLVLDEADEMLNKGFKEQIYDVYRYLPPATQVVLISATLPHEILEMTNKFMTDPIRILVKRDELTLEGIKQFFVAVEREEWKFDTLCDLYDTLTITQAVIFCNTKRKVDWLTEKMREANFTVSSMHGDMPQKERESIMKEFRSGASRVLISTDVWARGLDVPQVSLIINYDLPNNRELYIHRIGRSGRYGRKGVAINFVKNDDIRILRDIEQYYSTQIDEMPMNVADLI
UniProt P60228, whole entry, looked up: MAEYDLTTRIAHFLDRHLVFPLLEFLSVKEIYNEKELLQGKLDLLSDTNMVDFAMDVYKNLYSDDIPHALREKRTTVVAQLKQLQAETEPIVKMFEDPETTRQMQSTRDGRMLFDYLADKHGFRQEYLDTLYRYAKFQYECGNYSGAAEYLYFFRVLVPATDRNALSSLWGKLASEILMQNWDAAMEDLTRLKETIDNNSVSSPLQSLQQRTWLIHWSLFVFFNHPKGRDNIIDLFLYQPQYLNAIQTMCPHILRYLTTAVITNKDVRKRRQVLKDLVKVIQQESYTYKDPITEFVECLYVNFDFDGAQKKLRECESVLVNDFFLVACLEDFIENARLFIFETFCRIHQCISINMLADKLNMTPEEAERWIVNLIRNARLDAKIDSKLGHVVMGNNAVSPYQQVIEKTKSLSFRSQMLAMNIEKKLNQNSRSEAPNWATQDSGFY
UniProt P34913, whole entry, looked up: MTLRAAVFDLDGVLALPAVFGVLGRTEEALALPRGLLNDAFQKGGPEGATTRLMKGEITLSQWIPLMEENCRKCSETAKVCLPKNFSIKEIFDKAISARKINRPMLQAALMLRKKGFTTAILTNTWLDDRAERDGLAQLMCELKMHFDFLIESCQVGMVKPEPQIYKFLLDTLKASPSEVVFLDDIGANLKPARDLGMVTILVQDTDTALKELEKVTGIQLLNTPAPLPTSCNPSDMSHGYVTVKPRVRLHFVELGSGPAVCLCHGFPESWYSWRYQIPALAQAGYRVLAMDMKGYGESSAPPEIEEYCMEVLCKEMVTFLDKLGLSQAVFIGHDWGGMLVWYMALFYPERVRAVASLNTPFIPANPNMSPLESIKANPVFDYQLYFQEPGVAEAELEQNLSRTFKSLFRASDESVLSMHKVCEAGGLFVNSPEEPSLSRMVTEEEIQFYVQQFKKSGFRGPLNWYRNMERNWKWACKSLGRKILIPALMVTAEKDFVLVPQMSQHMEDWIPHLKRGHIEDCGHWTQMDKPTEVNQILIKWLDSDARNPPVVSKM

These results are taken from the supplement of paper PMC10849652.

Compound in the experiment: COc1cc2ncnc(Nc3ccc(F)c(Cl)c3)c2cc1OCCCN1CCOCC1 [gefitinib]
Description: log2 fold change, soluble protein after heating vs DMSO (PISA); higher = thermal stabilisation; K562 lysate, 10 uM; active = over 0.2 and 3.5 SD of the protein, either way, in both replicates (recomputed). The essentials: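 Thermal stability, expressed as log-two fold change relative to solvent controls, is given from duplicates. Crude K562 extract in PBS pH 7.4 with 1 mM MgCl2, at 1 mg/mL protein, was treated with 10 μM compound for 30 min and heated in aliquots for 3 min across 48°C-58°C. After pooling, adjustment to 0.5% NP-40 at 4°C and centrifugation at 21,000xg for 90 min, supernatant protein was measured by TMTpro 16plex LC-MS/MS with channel sums equalised.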
With EIF2AK4 (UniProt Q9P2K8), the log2 fold change was inactive: 0.028.
In the case of EMC3 (UniProt Q9P0I2), the log2 fold change is inactive: -0.02.
The result for EMP3 (UniProt P54852) reads inactive: -0.071; that for EMC4 (UniProt Q5J8M3), inactive: -0.075; that for EPB41L3 (UniProt Q9Y2J2), inactive: 0.008.
For the target EIF4EBP2 (UniProt Q13542), the log2 fold change is inactive: -0.227.
In the case of ERCC6L (UniProt Q2NKX8), the log2 fold change was inactive: 0.011.
In the case of EIF4E isoform 2 (UniProt P06730), the log2 fold change was inactive: -0.014.
As for EMC6 (UniProt Q9BV81), the log2 fold change was inactive: -0.327.
Regarding EIF4A3 (UniProt P38919), the log2 fold change was inactive: -0.023.
The figure for EIF3E (UniProt P60228) is inactive: 0.014; for EPHX2 (UniProt P34913) it is inactive: -0.002.
